# Experimental data as given in publication PMC13155314.
# By UniProt entry, the sequences of proteins in these tests, tags left out. Where a name states a change or a piece, a line headed by the entry shows the natural chain unless it says otherwise.
# UniProt Q9JHF5: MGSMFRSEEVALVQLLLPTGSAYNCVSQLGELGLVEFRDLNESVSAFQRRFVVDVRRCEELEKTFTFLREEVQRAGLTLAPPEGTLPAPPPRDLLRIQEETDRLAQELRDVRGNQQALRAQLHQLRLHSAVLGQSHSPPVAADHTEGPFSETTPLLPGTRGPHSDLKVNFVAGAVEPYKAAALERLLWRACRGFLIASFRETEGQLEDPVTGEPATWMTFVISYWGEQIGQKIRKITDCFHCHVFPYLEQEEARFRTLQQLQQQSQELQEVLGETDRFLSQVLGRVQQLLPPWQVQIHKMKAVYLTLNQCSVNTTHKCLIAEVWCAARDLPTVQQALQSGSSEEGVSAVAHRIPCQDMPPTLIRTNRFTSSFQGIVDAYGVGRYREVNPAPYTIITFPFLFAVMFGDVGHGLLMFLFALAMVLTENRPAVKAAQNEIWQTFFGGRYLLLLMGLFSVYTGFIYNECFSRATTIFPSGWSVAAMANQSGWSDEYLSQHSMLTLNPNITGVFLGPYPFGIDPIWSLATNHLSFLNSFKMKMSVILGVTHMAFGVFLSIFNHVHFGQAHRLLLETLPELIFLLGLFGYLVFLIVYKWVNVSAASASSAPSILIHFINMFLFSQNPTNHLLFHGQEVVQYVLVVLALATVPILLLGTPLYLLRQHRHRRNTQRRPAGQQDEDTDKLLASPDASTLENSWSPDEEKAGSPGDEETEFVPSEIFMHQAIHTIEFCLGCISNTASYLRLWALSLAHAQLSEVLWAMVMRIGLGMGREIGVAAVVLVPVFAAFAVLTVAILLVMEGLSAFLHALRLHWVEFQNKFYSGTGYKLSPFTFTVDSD
# These are yes or no findings as the source states them, for the method shown. In cells and extracts the contact can be indirect. Sequences can lack the tags named with a protein.
# Target: T1, 3X-FLAG-RAB5c (mouse) (UniProt P35278)
# T1 sequence: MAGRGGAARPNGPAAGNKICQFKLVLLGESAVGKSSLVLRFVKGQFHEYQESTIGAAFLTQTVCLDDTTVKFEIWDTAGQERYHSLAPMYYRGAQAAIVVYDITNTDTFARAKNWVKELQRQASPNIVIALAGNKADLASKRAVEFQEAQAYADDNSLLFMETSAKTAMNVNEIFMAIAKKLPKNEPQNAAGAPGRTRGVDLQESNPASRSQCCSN
# Assay: co-IP; anti-FLAG M2 magnetic beads, 3X-FLAG-RAB5c as bait; RAW264.7 cells coexpressing ATP6V0a3-EGFP, IFN-γ (200 U/ml) 16 h; lysed in Pierce IP Lysis Buffer; 4°C, 50 min; immunoblot
substance,measurement,value
ATP6V0a3-EGFP (from UniProt Q9JHF5),binding,no binding
